{"source": "patent US9850285", "about": "(dated 2017)", "assay": "general procedure: solution-phase peptide synthesis; EDAC.HCl/HOBT", "conditions": "cyclisation step", "data": [{"substance": "Eptifibatide", "values": [{"measurement": "crude HPLC purity", "value": 90, "unit": "%"}]}]}
